From the supplement of paper PMC12823440, “Inhibitors supercharge kinase turnover through native proteolytic circuits” (Nature, 2025)
Counter-ions that a name gives are not always drawn. This is one part of the list. Hit calls seldom repeat between salt and free forms of one compound.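 Kinases, fused to nanoluciferase, were expressed in K562 cells; luminescence was measured every 4 h from 2 to 18 h as percent of control (DMSO = 100%, positive control = 0%). A time point is decreased if signal falls significantly (2 sigma). Hits were called by the authors by a rule that is not shown; the count of time points alone does not decide it.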

The chains behind the UniProt entries cited, without tags or fusion partners. Where a name states a change or a piece, a line headed by the entry shows the natural chain unless it says otherwise.
UniProt P00519, whole entry: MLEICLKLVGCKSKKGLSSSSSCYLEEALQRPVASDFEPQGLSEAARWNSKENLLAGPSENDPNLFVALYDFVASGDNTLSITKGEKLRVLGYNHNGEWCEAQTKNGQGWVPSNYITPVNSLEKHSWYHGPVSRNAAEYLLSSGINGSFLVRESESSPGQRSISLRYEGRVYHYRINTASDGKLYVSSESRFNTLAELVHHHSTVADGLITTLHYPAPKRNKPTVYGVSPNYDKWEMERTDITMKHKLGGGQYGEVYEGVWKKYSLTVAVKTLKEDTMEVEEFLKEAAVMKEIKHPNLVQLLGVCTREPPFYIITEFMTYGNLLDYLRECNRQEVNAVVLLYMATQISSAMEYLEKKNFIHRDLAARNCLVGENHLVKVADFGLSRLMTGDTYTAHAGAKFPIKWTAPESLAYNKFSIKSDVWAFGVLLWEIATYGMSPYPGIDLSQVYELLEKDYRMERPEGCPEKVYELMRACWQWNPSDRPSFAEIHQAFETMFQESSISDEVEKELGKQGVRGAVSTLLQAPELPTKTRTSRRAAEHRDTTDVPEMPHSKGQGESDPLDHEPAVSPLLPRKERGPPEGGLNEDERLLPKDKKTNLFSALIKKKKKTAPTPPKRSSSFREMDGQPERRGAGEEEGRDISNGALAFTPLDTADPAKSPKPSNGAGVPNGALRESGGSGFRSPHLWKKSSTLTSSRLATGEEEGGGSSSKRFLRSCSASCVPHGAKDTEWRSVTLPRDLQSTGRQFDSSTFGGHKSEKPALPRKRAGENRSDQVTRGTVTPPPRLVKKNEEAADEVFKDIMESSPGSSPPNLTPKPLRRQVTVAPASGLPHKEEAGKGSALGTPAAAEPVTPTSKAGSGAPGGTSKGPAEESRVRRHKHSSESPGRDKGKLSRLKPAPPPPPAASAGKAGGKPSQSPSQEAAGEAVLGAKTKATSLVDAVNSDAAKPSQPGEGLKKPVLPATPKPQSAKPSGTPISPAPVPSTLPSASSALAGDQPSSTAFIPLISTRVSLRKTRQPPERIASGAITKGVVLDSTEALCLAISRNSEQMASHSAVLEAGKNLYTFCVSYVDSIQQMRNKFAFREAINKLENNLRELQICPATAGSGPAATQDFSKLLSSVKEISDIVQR
UniProt Q9UM73: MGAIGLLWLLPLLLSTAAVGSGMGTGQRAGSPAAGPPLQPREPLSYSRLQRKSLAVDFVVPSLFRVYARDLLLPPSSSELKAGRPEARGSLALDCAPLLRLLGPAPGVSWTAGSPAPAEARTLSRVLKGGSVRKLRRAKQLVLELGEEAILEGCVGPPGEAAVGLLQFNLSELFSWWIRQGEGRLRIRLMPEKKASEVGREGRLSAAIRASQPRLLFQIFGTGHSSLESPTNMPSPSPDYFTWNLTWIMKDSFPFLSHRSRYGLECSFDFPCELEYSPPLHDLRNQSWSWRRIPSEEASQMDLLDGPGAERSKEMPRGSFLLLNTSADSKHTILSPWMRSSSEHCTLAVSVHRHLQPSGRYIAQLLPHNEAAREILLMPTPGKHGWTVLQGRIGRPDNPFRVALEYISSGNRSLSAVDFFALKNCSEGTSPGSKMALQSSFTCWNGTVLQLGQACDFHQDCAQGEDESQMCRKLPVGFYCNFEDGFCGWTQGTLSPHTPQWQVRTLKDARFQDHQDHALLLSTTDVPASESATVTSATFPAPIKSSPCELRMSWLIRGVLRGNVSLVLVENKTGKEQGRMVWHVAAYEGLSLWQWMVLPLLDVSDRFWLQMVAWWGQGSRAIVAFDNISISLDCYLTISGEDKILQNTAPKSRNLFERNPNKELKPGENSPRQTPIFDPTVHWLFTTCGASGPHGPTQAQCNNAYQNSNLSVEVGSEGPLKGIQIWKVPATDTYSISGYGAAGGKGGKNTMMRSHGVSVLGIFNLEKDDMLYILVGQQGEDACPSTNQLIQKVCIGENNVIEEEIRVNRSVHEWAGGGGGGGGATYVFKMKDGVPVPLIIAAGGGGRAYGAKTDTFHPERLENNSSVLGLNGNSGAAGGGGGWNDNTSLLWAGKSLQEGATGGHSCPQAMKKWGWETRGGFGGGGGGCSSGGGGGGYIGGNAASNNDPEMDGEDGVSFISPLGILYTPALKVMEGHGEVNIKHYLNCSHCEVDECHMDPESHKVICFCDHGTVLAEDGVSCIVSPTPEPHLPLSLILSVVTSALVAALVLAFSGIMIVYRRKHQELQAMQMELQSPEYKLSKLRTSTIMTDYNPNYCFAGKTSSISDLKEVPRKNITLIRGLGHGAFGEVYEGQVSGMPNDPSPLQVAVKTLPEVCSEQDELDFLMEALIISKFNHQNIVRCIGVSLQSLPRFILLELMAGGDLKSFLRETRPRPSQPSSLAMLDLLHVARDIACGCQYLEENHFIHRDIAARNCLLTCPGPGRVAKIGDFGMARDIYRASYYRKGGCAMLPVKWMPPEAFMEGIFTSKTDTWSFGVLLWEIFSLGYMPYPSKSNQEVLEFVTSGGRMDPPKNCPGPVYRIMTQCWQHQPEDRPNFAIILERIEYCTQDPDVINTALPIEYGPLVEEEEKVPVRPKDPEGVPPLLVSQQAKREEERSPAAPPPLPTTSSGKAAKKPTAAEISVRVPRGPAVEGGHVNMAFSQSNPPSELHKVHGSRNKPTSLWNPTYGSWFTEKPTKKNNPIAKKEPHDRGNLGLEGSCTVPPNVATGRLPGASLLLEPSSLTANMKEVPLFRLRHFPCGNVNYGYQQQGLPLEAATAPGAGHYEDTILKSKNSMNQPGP
UniProt P10398: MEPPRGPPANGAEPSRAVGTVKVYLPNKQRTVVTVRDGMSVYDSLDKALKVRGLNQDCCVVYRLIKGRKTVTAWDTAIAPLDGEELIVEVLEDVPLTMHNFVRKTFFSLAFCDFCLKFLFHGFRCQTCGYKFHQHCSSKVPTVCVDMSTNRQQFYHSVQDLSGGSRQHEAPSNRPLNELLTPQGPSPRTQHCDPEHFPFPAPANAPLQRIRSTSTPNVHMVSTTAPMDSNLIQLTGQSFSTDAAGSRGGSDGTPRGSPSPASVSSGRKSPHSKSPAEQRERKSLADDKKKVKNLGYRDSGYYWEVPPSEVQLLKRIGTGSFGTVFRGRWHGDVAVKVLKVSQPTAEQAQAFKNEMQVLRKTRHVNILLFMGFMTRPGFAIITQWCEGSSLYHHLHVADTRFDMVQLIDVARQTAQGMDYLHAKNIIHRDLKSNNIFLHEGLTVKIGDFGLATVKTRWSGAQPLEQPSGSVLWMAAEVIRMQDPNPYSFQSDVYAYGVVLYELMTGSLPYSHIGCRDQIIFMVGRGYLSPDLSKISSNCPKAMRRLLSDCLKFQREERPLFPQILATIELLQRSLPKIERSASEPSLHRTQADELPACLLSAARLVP
UniProt O14965: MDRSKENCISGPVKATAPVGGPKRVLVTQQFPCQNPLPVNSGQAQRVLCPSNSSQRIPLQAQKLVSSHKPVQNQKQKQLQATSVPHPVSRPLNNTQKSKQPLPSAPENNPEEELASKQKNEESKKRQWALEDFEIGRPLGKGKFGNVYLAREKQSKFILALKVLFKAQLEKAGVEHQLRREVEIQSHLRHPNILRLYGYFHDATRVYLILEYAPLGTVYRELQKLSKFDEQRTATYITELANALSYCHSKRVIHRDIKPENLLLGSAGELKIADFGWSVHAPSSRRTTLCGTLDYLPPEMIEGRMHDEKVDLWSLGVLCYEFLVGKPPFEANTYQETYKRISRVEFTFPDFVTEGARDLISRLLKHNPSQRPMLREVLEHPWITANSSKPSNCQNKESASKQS
UniProt Q96GD4, whole entry: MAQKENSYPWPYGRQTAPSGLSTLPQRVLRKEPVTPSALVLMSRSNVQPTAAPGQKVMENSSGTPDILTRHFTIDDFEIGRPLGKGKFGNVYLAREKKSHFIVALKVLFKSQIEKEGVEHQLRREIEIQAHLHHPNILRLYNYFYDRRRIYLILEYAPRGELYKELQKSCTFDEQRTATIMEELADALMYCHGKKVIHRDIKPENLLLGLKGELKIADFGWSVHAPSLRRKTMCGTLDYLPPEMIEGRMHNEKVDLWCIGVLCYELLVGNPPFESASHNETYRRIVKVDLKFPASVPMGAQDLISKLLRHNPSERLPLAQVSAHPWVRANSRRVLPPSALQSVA
UniProt Q9UQB9: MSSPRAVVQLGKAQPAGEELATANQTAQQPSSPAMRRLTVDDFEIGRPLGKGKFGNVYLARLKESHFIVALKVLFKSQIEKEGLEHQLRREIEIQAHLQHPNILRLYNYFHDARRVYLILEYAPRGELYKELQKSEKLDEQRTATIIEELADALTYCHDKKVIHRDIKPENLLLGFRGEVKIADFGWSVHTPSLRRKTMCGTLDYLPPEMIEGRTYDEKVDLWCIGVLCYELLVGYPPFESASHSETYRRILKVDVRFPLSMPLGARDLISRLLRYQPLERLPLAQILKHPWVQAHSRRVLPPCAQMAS
UniProt P51451: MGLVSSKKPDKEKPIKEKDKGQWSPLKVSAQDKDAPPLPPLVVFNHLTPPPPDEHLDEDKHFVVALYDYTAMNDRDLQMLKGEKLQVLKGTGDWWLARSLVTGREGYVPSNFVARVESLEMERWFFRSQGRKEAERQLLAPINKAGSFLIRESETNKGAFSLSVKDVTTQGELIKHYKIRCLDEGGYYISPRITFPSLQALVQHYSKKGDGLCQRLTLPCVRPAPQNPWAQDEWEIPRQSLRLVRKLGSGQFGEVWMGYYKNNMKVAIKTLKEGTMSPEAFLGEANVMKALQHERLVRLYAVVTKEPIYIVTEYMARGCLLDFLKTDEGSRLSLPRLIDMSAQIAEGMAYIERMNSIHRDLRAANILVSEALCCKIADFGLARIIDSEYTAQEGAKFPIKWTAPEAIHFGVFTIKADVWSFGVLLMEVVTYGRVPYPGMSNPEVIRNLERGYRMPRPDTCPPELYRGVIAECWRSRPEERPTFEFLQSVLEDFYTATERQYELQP
UniProt P51813: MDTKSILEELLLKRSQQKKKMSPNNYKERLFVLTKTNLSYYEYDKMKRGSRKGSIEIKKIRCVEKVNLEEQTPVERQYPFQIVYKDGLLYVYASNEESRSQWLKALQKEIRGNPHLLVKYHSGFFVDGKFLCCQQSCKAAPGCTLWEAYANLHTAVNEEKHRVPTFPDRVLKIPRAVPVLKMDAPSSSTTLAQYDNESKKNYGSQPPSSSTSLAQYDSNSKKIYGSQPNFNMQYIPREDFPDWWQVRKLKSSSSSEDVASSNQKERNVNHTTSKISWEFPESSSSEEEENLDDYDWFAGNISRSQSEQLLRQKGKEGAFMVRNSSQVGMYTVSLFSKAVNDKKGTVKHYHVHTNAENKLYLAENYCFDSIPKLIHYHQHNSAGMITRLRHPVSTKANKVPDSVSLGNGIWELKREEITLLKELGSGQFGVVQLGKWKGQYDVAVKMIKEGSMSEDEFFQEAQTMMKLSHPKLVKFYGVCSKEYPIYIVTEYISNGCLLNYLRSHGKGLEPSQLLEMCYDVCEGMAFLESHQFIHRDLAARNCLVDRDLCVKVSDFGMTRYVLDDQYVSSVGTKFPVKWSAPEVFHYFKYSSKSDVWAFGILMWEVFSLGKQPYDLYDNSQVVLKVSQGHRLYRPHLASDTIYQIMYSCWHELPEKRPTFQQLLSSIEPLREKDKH
UniProt P15056, whole entry, looked up: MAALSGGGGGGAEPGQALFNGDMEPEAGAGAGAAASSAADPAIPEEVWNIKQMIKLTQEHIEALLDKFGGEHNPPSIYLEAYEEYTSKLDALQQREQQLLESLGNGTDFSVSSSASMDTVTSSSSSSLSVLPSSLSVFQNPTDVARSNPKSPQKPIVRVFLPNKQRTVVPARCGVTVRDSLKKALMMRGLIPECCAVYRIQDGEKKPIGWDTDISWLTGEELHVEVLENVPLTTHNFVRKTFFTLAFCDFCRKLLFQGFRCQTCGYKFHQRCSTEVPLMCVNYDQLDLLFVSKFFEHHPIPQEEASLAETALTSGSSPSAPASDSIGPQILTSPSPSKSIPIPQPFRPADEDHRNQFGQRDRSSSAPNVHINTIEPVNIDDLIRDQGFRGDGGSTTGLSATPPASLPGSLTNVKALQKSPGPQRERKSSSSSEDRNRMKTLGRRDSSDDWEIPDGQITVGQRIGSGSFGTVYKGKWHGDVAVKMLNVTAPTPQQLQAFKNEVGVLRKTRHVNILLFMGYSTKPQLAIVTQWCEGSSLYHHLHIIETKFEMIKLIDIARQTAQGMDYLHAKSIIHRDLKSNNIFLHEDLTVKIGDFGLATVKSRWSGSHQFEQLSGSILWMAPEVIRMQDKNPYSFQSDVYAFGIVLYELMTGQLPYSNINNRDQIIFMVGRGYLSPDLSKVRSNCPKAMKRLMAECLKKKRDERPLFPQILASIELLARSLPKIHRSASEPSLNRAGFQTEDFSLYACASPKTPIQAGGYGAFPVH

What was measured:
Assay in all cases: kinase-Nluc reporter destabilization hit call (1 = scored as downregulated) (binary); higher = compound decreases kinase abundance
Details in all cases: K562; 2-18 h
ABL1 = ABL1 (UniProt P00519)
AKT1 = AKT1 (UniProt P31749)
ALK = ALK (UniProt Q9UM73)
ARAF = ARAF (UniProt P10398)
AURKA = AURKA (UniProt O14965)
AURKB = AURKB (UniProt Q96GD4)
AURKC = AURKC (UniProt Q9UQB9)
BLK = BLK (UniProt P51451)
BMX = BMX (UniProt P51813)
BRAF = BRAF (UniProt P15056)

Measured: kinase-Nluc reporter destabilization hit call

COc1cc2ncnc(Nc3ccccc3)c2cc1OC (10 µM)
inactive: ABL1 = 0 | AKT1 = 0 | ALK 0 | ARAF 0 | AURKA 0 | AURKB 0 | AURKC 0 | BLK 0 | BMX 0 | BRAF 0

Nc1ncnc2c1c(COc1cccc(Cl)c1)nn2C1CCOCC1 (10 µM)
inactive: ABL1 = 0 | AKT1 = 0 | ALK 0 | ARAF 0 | AURKA 0 | AURKB 0 | AURKC 0 | BLK 0 | BMX 0 | BRAF 0

Cc1ncc(NC(=O)NC2c3ccccc3-c3ccccc32)c(-c2ccccc2)n1 (10 µM)
inactive: ABL1 = 0 | AKT1 = 0 | ALK 0 | ARAF 0 | AURKA 0 | AURKB 0 | AURKC 0 | BLK 0 | BMX 0 | BRAF 0

O=C1NC(=Nc2c(Cl)cccc2Cl)S/C1=C\c1ccc2nccnc2c1 (2.5 µM)
inactive: ABL1 = 0 | AKT1 = 0 | ALK 0 | ARAF 0 | AURKA 0 | AURKB 0 | AURKC 0 | BLK 0 | BMX 0 | BRAF 0

Cc1ccn2c(C(=O)C(=O)c3ccccc3)c(-c3ccccc3)nc2c1 (10 µM)
inactive: ABL1 = 0 | AKT1 = 0 | ALK 0 | ARAF 0 | AURKA 0 | AURKB 0 | AURKC 0 | BLK 0 | BMX 0 | BRAF 0

COc1cc(/C=C/C(=O)N2CCC=CC2=O)cc(OC)c1OC [Piperlongumine] (2.5 µM)
inactive: ABL1 = 0 | AKT1 = 0 | ALK 0 | ARAF 0 | AURKA 0 | AURKB 0 | AURKC 0 | BLK 0 | BMX 0 | BRAF 0

Cc1cc(Nc2ncnc3ccc(-c4ccc(CNCCS(C)(=O)=O)o4)cc23)ccc1Oc1ccn2ncnc2c1 [ARRY-380 (analog )] (2.5 µM)
inactive: ABL1 = 0 | AKT1 = 0 | ALK 0 | ARAF 0 | AURKA 0 | AURKB 0 | AURKC 0 | BLK 0 | BMX 0 | BRAF 0

COc1ccc(-c2c(C)nn3c(NCCN4CCOCC4)cc(C)nc23)cc1OC (10 µM)
inactive: ABL1 = 0 | AKT1 = 0 | ALK 0 | ARAF 0 | AURKA 0 | AURKB 0 | AURKC 0 | BLK 0 | BMX 0 | BRAF 0

CCOC(=O)N1C/C(=C/c2ccccc2F)C(=O)/C(=C\c2ccccc2F)C1 (2.5 µM)
inactive: ABL1 = 0 | AKT1 = 0 | ALK 0 | ARAF 0 | AURKA 0 | AURKB 0 | AURKC 0 | BLK 0 | BMX 0 | BRAF 0

COc1cc2ncnc(Nc3ccc(F)c(Cl)c3)c2cc1NC(=O)/C=C/CN1CCCCC1 [Dacomitinib] (10 µM)
inactive: ABL1 = 0 | AKT1 = 0 | ALK 0 | ARAF 0 | AURKA 0 | AURKB 0 | AURKC 0 | BLK 0 | BMX 0 | BRAF 0

CN(C)S(=O)(=O)c1ccc2c(c1)/C(=C/c1cc3c([nH]1)CCCC3)C(=O)N2 (2.5 µM)
inactive: ABL1 = 0 | AKT1 = 0 | ALK 0 | ARAF 0 | AURKA 0 | AURKB 0 | AURKC 0 | BLK 0 | BMX 0 | BRAF 0

Cn1cc(-c2c[nH]c3ncnc(N4CCOCC4)c23)cc1C#N (10 µM)
inactive: ABL1 = 0 | AKT1 = 0 | ALK 0 | ARAF 0 | AURKA 0 | AURKB 0 | AURKC 0 | BLK 0 | BMX 0 | BRAF 0

COc1cc(N2CCOCC2)ccc1Nc1ncc(Cl)c(Nc2ccccc2NS(C)(=O)=O)n1 (2.5 µM)
inactive: ABL1 = 0 | AKT1 = 0 | ALK 0 | ARAF 0 | AURKA 0 | AURKB 0 | AURKC 0 | BLK 0 | BMX 0 | BRAF 0

Cn1cc(C2=C(c3cccc(N)c3)C(=O)NC2=O)c2ccccc21 (10 µM)
inactive: ABL1 = 0 | AKT1 = 0 | ALK 0 | ARAF 0 | AURKA 0 | AURKB 0 | AURKC 0 | BLK 0 | BMX 0 | BRAF 0

C=CC(=O)Nc1cc(-n2c(=O)ccc3cnc4ccc(-c5ccc(NS(C)(=O)=O)cc5)cc4c32)ccc1C (10 µM)
inactive: ABL1 = 0 | AKT1 = 0 | ALK 0 | ARAF 0 | AURKA 0 | AURKB 0 | AURKC 0 | BLK 0 | BMX 0 | BRAF 0

CC(=O)N1CCC(c2cc(-c3ccc(NC(=O)c4cccn(-c5ccc(F)cc5)c4=O)cc3F)c3c(N)ncnn23)CC1 (0.5 µM)
inactive: ABL1 = 0 | AKT1 = 0 | ALK 0 | ARAF 0 | AURKA 0 | AURKB 0 | AURKC 0 | BLK 0 | BMX 0 | BRAF 0

O=c1[nH]c(C2CCCN2)nc2c1oc1ccc(Cl)cc12 (stereo not given) [XL413 (hydrochloride)] (10 µM)
inactive: ABL1 = 0 | AKT1 = 0 | ALK 0 | ARAF 0 | AURKA 0 | AURKB 0 | AURKC 0 | BLK 0 | BMX 0 | BRAF 0

CN(c1ccc(NC(=O)Nc2ccc(OC(F)(F)F)cc2)cc1)c1ccnc(Nc2cccc(S(N)(=O)=O)c2)n1 (2.5 µM)
inactive: ABL1 = 0 | AKT1 = 0 | ALK 0 | ARAF 0 | AURKA 0 | AURKB 0 | AURKC 0 | BLK 0 | BMX 0 | BRAF 0

Some of these compounds in order of molar mass, ascending:
O=c1[nH]c(C2CCCN2)nc2c1oc1ccc(Cl)cc12 (stereo not given) [XL413 (hydrochloride)] (10 µM)
inactive: ABL1 = 0 | AKT1 = 0 | ALK 0 | ARAF 0 | AURKA 0 | AURKB 0 | AURKC 0 | BLK 0 | BMX 0 | BRAF 0

Cn1cc(C2=C(c3cccc(N)c3)C(=O)NC2=O)c2ccccc21 (10 µM)
inactive: ABL1 = 0 | AKT1 = 0 | ALK 0 | ARAF 0 | AURKA 0 | AURKB 0 | AURKC 0 | BLK 0 | BMX 0 | BRAF 0

Nc1ncnc2c1c(COc1cccc(Cl)c1)nn2C1CCOCC1 (10 µM)
inactive: ABL1 = 0 | AKT1 = 0 | ALK 0 | ARAF 0 | AURKA 0 | AURKB 0 | AURKC 0 | BLK 0 | BMX 0 | BRAF 0

CN(C)S(=O)(=O)c1ccc2c(c1)/C(=C/c1cc3c([nH]1)CCCC3)C(=O)N2 (2.5 µM)
inactive: ABL1 = 0 | AKT1 = 0 | ALK 0 | ARAF 0 | AURKA 0 | AURKB 0 | AURKC 0 | BLK 0 | BMX 0 | BRAF 0

CCOC(=O)N1C/C(=C/c2ccccc2F)C(=O)/C(=C\c2ccccc2F)C1 (2.5 µM)
inactive: ABL1 = 0 | AKT1 = 0 | ALK 0 | ARAF 0 | AURKA 0 | AURKB 0 | AURKC 0 | BLK 0 | BMX 0 | BRAF 0

COc1ccc(-c2c(C)nn3c(NCCN4CCOCC4)cc(C)nc23)cc1OC (10 µM)
inactive: ABL1 = 0 | AKT1 = 0 | ALK 0 | ARAF 0 | AURKA 0 | AURKB 0 | AURKC 0 | BLK 0 | BMX 0 | BRAF 0

The listing continues.

Cn1cnc([N+](=O)[O-])c1C[N+](C)(C)C/C=C/C(=O)Nc1cc2c(Nc3ccc(Cl)c(Br)c3)ncnc2cn1 [Tarloxotinib (bromide)] (10 µM)
inactive: ABL1 = 0 | AKT1 = 0 | ALK 0 | ARAF 0 | AURKA 0 | AURKB 0 | AURKC 0 | BLK 0 | BMX 0 | BRAF 0

COc1cc(N(C)CCN(C)C)c(N)cc1Nc1nccc(-c2cn(C)c3ccccc23)n1 [Mutated EGFR-IN-1] (10 µM)
inactive: ABL1 = 0 | AKT1 = 0 | ALK 0 | ARAF 0 | AURKA 0 | AURKB 0 | AURKC 0 | BLK 0 | BMX 0 | BRAF 0

C[C@H](Nc1ncnc2[nH]cnc12)c1cc2ccc(F)cc2nc1-c1ccccn1 (10 µM)
inactive: ABL1 = 0 | AKT1 = 0 | ALK 0 | ARAF 0 | AURKA 0 | AURKB 0 | AURKC 0 | BLK 0 | BMX 0 | BRAF 0

CC(=O)c1c(C)c2cnc(Nc3ccc(N4CCN(C(=O)CNc5cccc6c5C(=O)N(C5CCC(=O)NC5=O)C6=O)CC4)cn3)nc2n(C2CCCC2)c1=O (stereo not given) (10 µM)
inactive: ABL1 = 0 | AKT1 = 0 | ALK 0 | ARAF 0 | AURKA 0 | AURKB 0 | AURKC 0 | BLK 0 | BMX 0 | BRAF 0

CCc1cncnc1N1CCN(Cc2nc3ccc(C(F)(F)F)cc3[nH]2)CC1 (10 µM)
inactive: ABL1 = 0 | AKT1 = 0 | ALK 0 | ARAF 0 | AURKA 0 | AURKB 0 | AURKC 0 | BLK 0 | BMX 0 | BRAF 0

COc1ccc(/C=C/C(=O)C2(C(=O)/C=C/c3ccc(OC)c(OC)c3)CCCCC2)cc1OC (2.5 µM)
inactive: ABL1 = 0 | AKT1 = 0 | ALK 0 | ARAF 0 | AURKA 0 | AURKB 0 | AURKC 0 | BLK 0 | BMX 0 | BRAF 0

CCCNC(=O)Nc1ccc(Oc2ncnc3cc(OC)c(OC)cc23)cc1Cl (2.5 µM)
inactive: ABL1 = 0 | AKT1 = 0 | ALK 0 | ARAF 0 | AURKA 0 | AURKB 0 | AURKC 0 | BLK 0 | BMX 0 | BRAF 0

Cc1c(-c2ccc(C(N)=O)c3[nH]c4cc(C(C)(C)O)ccc4c23)cccc1-n1cnc2ccccc2c1=O (2.5 µM)
inactive: ABL1 = 0 | AKT1 = 0 | ALK 0 | ARAF 0 | AURKA 0 | AURKB 0 | AURKC 0 | BLK 0 | BMX 0 | BRAF 0

CN1C(=O)[C@@H](NC(=O)c2n[nH]c(Cc3ccccc3)n2)COc2ccccc21 (10 µM)
inactive: ABL1 = 0 | AKT1 = 0 | ALK 0 | ARAF 0 | AURKA 0 | AURKB 0 | AURKC 0 | BLK 0 | BMX 0 | BRAF 0

COc1ccc(-c2coc3cc(O)ccc3c2=O)cc1 [Formononetin] (10 µM)
inactive: ABL1 = 0 | AKT1 = 0 | ALK 0 | ARAF 0 | AURKA 0 | AURKB 0 | AURKC 0 | BLK 0 | BMX 0 | BRAF 0

Nc1c(C(=O)NCc2ccc(C(=O)NCCCC3CCCCC3)cc2)cnn1-c1ccccc1 (2.5 µM)
inactive: ABL1 = 0 | AKT1 = 0 | ALK 0 | ARAF 0 | AURKA 0 | AURKB 0 | AURKC 0 | BLK 0 | BMX 0 | BRAF 0
